Measured values as given in the supplement of paper PMC7024190.
This is one part of the list. This data set is noisy: repeats of one test often differ as much as different tests do.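 Human embryonic kidney cells were transiently transfected with a plasmid bearing a Renilla luciferase gene under the HSV-TK promoter. This first-round screen tests roughly ten thousand compounds for ones that increase reporter output.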

Tested on: HEK 293FT
Test: log relative Renilla luciferase luminescence (reporter expression vs reference, reference not stated) (log (base not stated)); higher = higher recombinant reporter expression
Conditions: 10 µM; time after transfection 48 h
Method: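 HEK 293FT cells transiently transfected with pRL-TK (Renilla luciferase) were treated with compounds at 10 uM and luminescence was read about 42 h later. Values are log relative Renilla luminescence (log base and reference not stated). Single-pass screen; 2080 natural products library.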

Point of comparison: CC(=O)Oc1cc(O)c2c(c1)O[C@H](c1ccccc1)[C@@H](OC(C)=O)C2=O [3,7-O-Diacetylpinobanksin], log 0.0222. Against it:
- CCc1ncc(OC)c2c1[nH]c1c(O)cccc12 [Picrasidine J] — within 0.2 log units, 0.046
- COC1=CC(=O)C(C(=O)/C=C/c2ccccc2)=C1O [Lucidone] — lower, -0.331
- COC1=CC(=O)/C(=C(\C=C\c2ccccc2)OC)C1=O [Methyllucidone] — within 0.2 log units, -0.0923
- CC(C)(O)[C@@H]1Cc2c(cc3oc(CO)cc(=O)c3c2O)O1 [Angelicain] — within 0.2 log units, 0.0711
- C=C1C(=O)O[C@@H]2[C@H]3C(C)=CC[C@@H](O)[C@]3(C)CC[C@@H]12 [Santamarine] — within 0.2 log units, 0.104
- COc1cc([C@H]2c3cc(O)c(OC)cc3C[C@H]3COC(C)(C)OC[C@@H]32)ccc1O [9,9'-O-isopropyllidene-isolariciresinol] — within 0.2 log units, -0.0748
- COc1cc([C@H]2c3cc(O)c(OC)cc3C[C@H]3[C@@H](OC)OC[C@H]23)ccc1O [Formosanol] — lower, -0.443
- CC[C@H](CC[C@@H](C)[C@H]1CC[C@H]2[C@@H]3CC=C4C[C@@H](O[C@@H]5O[C@H](CO)[C@@H](O)[C@H](O)[C@H]5O)CC[C@]4(C)[C@H]3CC[C@]12C)C(C)C [Daucosterol] — within 0.2 log units, 0.0497
- COc1cc2oc(=O)ccc2cc1[C@H]1O[C@@H](O)[C@]2(C)O[C@H]12 [Dihydromicromelin B] — lower, -0.466
- CC(C)[C@H]1CC[C@@H]2[C@]1(C)CC[C@]1(C)C3=CC[C@H]4C(C)(C)C(=O)[C@]3(CC[C@@]21C)[C@@]4(C)CC(=O)O [Alstonic acid B] — within 0.2 log units, -0.0248
- CC(=O)Oc1ccc(-c2oc3cc(OC(C)=O)cc(O)c3c(=O)c2OC(C)=O)cc1 [Kaempferol 3,4',7-triacetate] — lower, -0.205
- COc1ccc(-c2cc(=O)c3c(O)c(OC)c(O)cc3o2)cc1 [Pectolinarigenin] — within 0.2 log units, -0.117
- CC(C)(O)CC[C@H]1OC(C)(C)O[C@]1(C)[C@H]1CC[C@@]2(O)C3=CC(=O)[C@@H]4C[C@H]5OC(C)(C)O[C@H]5C[C@]4(C)[C@H]3CC[C@]12C [Ecdysterone 2,3:20,22-diacetonide] — within 0.2 log units, 0.0425
- COC(=O)/C=C/c1c[nH]c2ccccc12 [Indole-3-acrylic acid methyl ester] — lower, -0.193
- C=C(C)[C@@H]1CC[C@@H]2C(=CC[C@]3(C)/C(=C(/C)CC/C=C(/C)C(=O)O)CC[C@@]23C)[C@@]1(C)CCC(=O)O [Kadsuracoccinic acid A] — within 0.2 log units, -0.0617
- C=C(C)[C@@H]1CC[C@]2(C)[C@H](CC[C@@H]3[C@@H]([C@]4(C)CCC(=O)O4)CC[C@]32C)[C@@]1(C)CCC(=O)O [Eichlerialactone] — lower, -0.2
- CC(=O)OC[C@H](Cc1ccccc1)NC(=O)[C@H](Cc1ccccc1)NC(=O)c1ccccc1 [Asperglaucide] — lower, -0.188
- Oc1cc(O)cc(CCc2ccccc2)c1 [Dihydropinosylvin] — higher, 0.852
